Source: PubChem BioAssay AID2685 (National Center for Advancing Translational Sciences (NCATS), 2010)
The other results are listed elsewhere or left out. The main result of the screen is listed elsewhere. These columns were measured beside it and carry no call. Compounds called inactive in the main read-out are mostly missing here. The note in brackets gives the kind of curve behind each potency; many fits are weak.

Experiment: qHTS Assay for Lipid Storage Modulators in Drosophila S3 Cells;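 for cell number change: cells counted by Cell Tracker Red CMTPX staining in the red channel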
Settings: BODIPY lipid droplet fluorescence, 18-24 h; for cell number change: measured here: cell count max response, cells fed with added oleic acid
Method in brief: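 Drosophila S3 cells got compounds at several concentrations plus oleic acid (400 uM solution). Laser-scanning cytometry with 488 nm excitation read lipid droplets at 500-530 nm and cells at 575-640 nm. Percent activity was relative to 20 uM Triacsin C.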

[1] = measured here: lipid fluorescence (Fed channel) AC50, cells fed with added oleic acid
[2] = measured here: cell number channel AC50, cells fed with added oleic acid

| SMILES | cell number change [%] | AC50 [1] | AC50 [2] |
| --- | --- | --- | --- |
| CCN(CC)CCCNC(=O)Cn1cnc2ccc(S(=O)(=O)N3CCC(C)CC3)cc2c1=O | -53.2 | 1.16 µM [falling, partial curve] |  |
| COC(=O)C1CN(S(=O)(=O)c2ccccc2)CCN1S(=O)(=O)c1ccccc1 (stereo unspecified) | -24.1 | 0.731 µM [falling, full curve] | 0.731 µM [falling, full curve] |
| CCOC(=O)c1c(-c2ccccc2)oc2ccc(OCC(=O)NNC(=O)CCC(=O)O)cc12 | -30.6 |  | 32.6 µM [falling, single point] |
| COc1ccc(CNC(=O)CCCC2=NS(=O)(=O)c3ccccc3N2)cc1 | 10.2 |  |  |
| COc1ccc(S(=O)(=O)Nc2ccc3oc(C)c(C(=O)O)c3c2)cc1 | 6.32 |  |  |
| COc1ccc(CN2CCN(CCc3ccccc3)C(CCO)C2)c(Cl)c1OC (stereo unspecified) | 5.09 | 0.651 µM [rising, full curve] |  |
| O=C(COc1ccccc1)NC(=S)Nc1cccc2cc(O)ccc12 | -47.3 | 29.1 µM [falling, single point] | 29.1 µM [falling, single point] |
| O=C(NCC1CCCCC1)C1CCC(=O)N(CCc2cccc(F)c2)C1 (stereo unspecified) | 32.7 | 0.731 µM [falling, full curve, poor fit] | 29.1 µM [rising, single point] |
| CCN(CC)c1nc(C)nc2c1sc(=S)n2C | -54.5 | 29.1 µM [falling, single point] | 29.1 µM [falling, single point] |
| COc1ccc(CCn2c(-c3ccc(Cl)cc3)n[nH]c2=S)cc1OC | 24.9 |  | 1.16 µM [rising, full curve, poor fit] |
| CCOC(=O)c1ccccc1NC(=O)c1nc2nccc(C)n2n1 | 68.6 |  | 4.61 µM [rising, full curve] |
| O=C(Cc1cnc2ncnn2c1)N1CCc2c([nH]c3ccccc23)C1c1ccccc1F (stereo unspecified) |  | 0.58 µM [rising, single point] |  |
| Cc1nc2ccc(N=NC3=C(O)CC(C)(C)CC3=O)cc2s1 | -42 | 2.59 µM [rising, full curve] | 1.46 µM [falling, partial curve] |
| Cc1ccc2c(c1)N(CC(=O)NC1CCC(C)CC1)C(=O)c1cccnc1O2 (stereo unspecified) | -8.65 | 5.17 µM [rising, partial curve] |  |
| COCCOC(=O)c1[nH]c2c(c1C)C(=O)CC(c1ccc(OC)c(OC)c1)C2 (stereo unspecified) | -24.5 | 29.1 µM [falling, single point] |  |
| COc1ccccc1N(C)S(=O)(=O)c1ccc(C(=O)OCC(=O)NCc2ccco2)cc1 | -13.8 |  |  |
| CCN(CC(=O)Nc1ccc(OC)c(OC)c1)S(=O)(=O)c1ccc(C)cc1 |  | 2.31 µM [rising, partial curve] |  |
| COc1ccccc1/C=C\C=N\NC(=O)CCn1nnc2ccccc21 |  |  | 0.517 µM [rising, single point] |
| COC(=O)c1cc(CNC(=O)c2ccccc2Cl)ccc1OC | -7.69 | 0.00461 µM [rising, full curve, poor fit] |  |

| SMILES | cell number change [%] | AC50 [1] | AC50 [2] |
| --- | --- | --- | --- |
| CCCCC(=O)O[C@H]1CC[C@H]2[C@@H]3CCc4cc(O)ccc4[C@H]3CC[C@]12C | -45.1 | 32.6 µM [falling, partial curve] | 18.4 µM [falling, partial curve, poor fit] |
| CCOC(=O)Cn1c(C)[n+](CC(=O)c2ccccc2)c2ccccc21 | -7.46 | 4.11 µM [falling, full curve, poor fit] |  |
| CNC(=O)c1oc(-c2ccccc2)nc1C | -3.49 | 32.6 µM [rising, single point] |  |
| O=C(N=C1SC2CS(=O)(=O)CC2N1Cc1ccccc1)C1CCCO1 (stereo unspecified) | 6.11 | 29.1 µM [rising, partial curve, poor fit] | 2.31 µM [rising, partial curve] |
| O=C(/C=C/c1ccc2c(c1)OCO2)NC1CCCC1 | 21.9 | 29.1 µM [rising, single point] | 3.26 µM [rising, partial curve] |
| O=C(NCc1ccc(Cl)cc1)C1CCN(C(=O)Cc2ccccc2)CC1 |  | 0.13 µM [falling, full curve, poor fit] |  |
| NC(=O)c1cc2ccccc2o/c1=N\NC(=O)c1ccco1 | 0.127 | 3.66 µM [rising, partial curve] |  |
| N#C/C(=C\c1ccccc1Cl)C(=O)Nc1ccccn1 |  | 23.1 µM [falling, partial curve] |  |
| COc1ccc([N+](=O)[O-])cc1NC(=O)CCN1CCN(C)CC1 | -31.2 | 14.6 µM [falling, partial curve, poor fit] |  |
| COCCNC(=O)CN(C(=O)c1ccc(N2CCCC2)nc1)c1ccc(F)c(Cl)c1 | 4.56 | 29.1 µM [falling, single point] |  |
| CC(/C=C1\SC(=O)N(CC(=O)Nc2ccc(O)cc2)C1=O)=C\c1ccccc1 | -42.9 | 32.6 µM [falling, partial curve, poor fit] | 32.6 µM [falling, partial curve, poor fit] |
| Cc1ccc(C(C)NC(=O)c2c(-c3ccccc3)noc2C)cc1C (stereo unspecified) | 31.4 | 15.8 µM [rising, single point] | 3.55 µM [rising, partial curve, poor fit] |
| CC(C)(C)c1ccc(C2SCC(=O)N2c2cccc(C(=O)O)c2)cc1 (stereo unspecified) | 179 | 23.1 µM [rising, single point] | 29.1 µM [rising, single point] |
| COc1ccccc1CCNC(=O)c1c(C)nn(CC(C)C)c1Cl | -2.53 | 0.651 µM [falling, single point] |  |
| Cc1ccc(NC(=O)NC2CC(=O)N(c3ccc4c(c3)OCCO4)C2)cc1 (stereo unspecified) | -25 | 20.6 µM [falling, single point] |  |
| O=C(Cn1cc(Br)ccc1=O)Nc1ccc2c(c1)OCO2 | 33.1 | 9.2 µM [rising, partial curve] | 6.51 µM [rising, partial curve] |
| COc1cccc(/C=N/NC(=O)C[n+]2ccccc2)c1OC | 16.5 |  | 4.61 µM [rising, single point] |
| O=C(O)Cc1ccc(NC(=O)c2cnccn2)cc1 | -32.3 | 18.4 µM [falling, partial curve, poor fit] | 32.6 µM [falling, single point] |
| COC(=O)c1ccc(NC(=O)CN2CCOCC2)cc1 | -5.43 | 29.1 µM [rising, single point] |  |

| SMILES | cell number change [%] | AC50 [1] | AC50 [2] |
| --- | --- | --- | --- |
| COC(=O)c1sc(N/N=C/c2ccc(C(C)C)cc2)nc1C | 344 |  | 20.6 µM [rising, partial curve] |
| Cc1cccc(Nc2nc(-c3sc(C)nc3C)cs2)c1 | -68 | 0.651 µM [rising, single point] | 20.6 µM [falling, partial curve] |
| CCCc1nnc(SCC(=O)NC2CC2)n1CC | 5.13 |  |  |
| O=C(O)C1C2CCC(O2)C1C(=O)NCc1ccccc1Br (stereo unspecified) | -47.8 |  | 13 µM [falling, partial curve, poor fit] |
| CCOc1ccc(-n2c(SCC(=O)O)nc3sc4c(c3c2=O)CCCC4)cc1 | 3.85 | 0.00411 µM [rising, full curve, poor fit] |  |
| Cc1cccc(NC(=O)COc2ccccc2C(=O)NC(C)c2ccccc2)c1 (stereo unspecified) | 30.3 | 0.731 µM [falling, partial curve, poor fit] | 2.06 µM [rising, partial curve, poor fit] |
| COc1cc(CC2COC(=O)C2(O)Cc2ccc(O)c(OC)c2)ccc1O (stereo unspecified) | -46.3 | 13 µM [falling, partial curve] | 11.6 µM [falling, partial curve, poor fit] |
| COc1ccc(C(=O)/C=C/Nc2ccc(S(=O)(=O)Nc3cc(OC)nc(OC)n3)cc2)c(OC)c1 |  | 6.31 µM [falling, partial curve] |  |
| COCc1ccc(C(=O)N2CCCC(C(=O)c3ccc(Cl)cc3C)C2)o1 (stereo unspecified) | -13.3 |  | 6.51 µM [falling, single point] |
| Cc1cccc(NC(=O)CCNS(=O)(=O)c2cccc3nonc23)c1 | 9.54 | 6.51 µM [falling, single point] | 4.61 µM [falling, single point] |
| Cc1onc(-c2ccccc2)c1C(=O)c1c[nH]c(C(=O)NCCCN2CCOCC2)c1 | -21.8 |  |  |
| COc1ccc(OC(C)c2ccc(C#N)c(=O)[nH]2)cc1 (stereo unspecified) |  | 6.51 µM [falling, partial curve, poor fit] |  |
| Cc1cc(C)c(S(=O)(=O)N2CCOC2CNC(=O)C(=O)NCCCn2ccnc2)c(C)c1 (stereo unspecified) |  |  | 0.58 µM [falling, single point] |
| Cc1cccc(NC(=O)NCc2cccnc2)c1C | -5.2 | 0.82 µM [falling, single point] |  |
| CC(C)(C)NS(=O)(=O)c1cc2c3c(c1)CCN3C(=O)CC2 | -2.8 |  |  |
| COC(=O)c1[nH]c2cccc(OC)c2c1NC(=O)CN1CC(C)OC(C)C1 (stereo unspecified) | 46.1 | 0.517 µM [rising, single point] | 16.4 µM [rising, single point] |
| COc1ccc(S(=O)(=O)N2CCOC23CCN(S(=O)(=O)c2ccc([N+](=O)[O-])cc2)CC3)cc1 | -7.02 |  |  |
| CCOc1ccc(S(=O)(=O)N2CCc3ccccc3C2)cc1 | 30.7 | 0.103 µM [falling, full curve, poor fit] | 29.1 µM [rising, single point] |

A different layout for part of the listing above:
SMILES	cell number change [%]	AC50 [1]	AC50 [2]
COc1cc(CC2COC(=O)C2(O)Cc2ccc(O)c(OC)c2)ccc1O (stereo unspecified)	-46.3	13 µM [falling, partial curve]	11.6 µM [falling, partial curve, poor fit]
COc1ccc(OC(C)c2ccc(C#N)c(=O)[nH]2)cc1 (stereo unspecified)		6.51 µM [falling, partial curve, poor fit]	
Cc1cccc(NC(=O)NCc2cccnc2)c1C	-5.2	0.82 µM [falling, single point]	
CC(C)(C)NS(=O)(=O)c1cc2c3c(c1)CCN3C(=O)CC2	-2.8		
CCOc1ccc(S(=O)(=O)N2CCc3ccccc3C2)cc1	30.7	0.103 µM [falling, full curve, poor fit]	29.1 µM [rising, single point]
